{
  "source": "PubChem BioAssay AID1347076",
  "about": "(National Center for Advancing Translational Sciences (NCATS), 2019)",
  "note": "Screen size: about 400,000 compounds; about 13,000 (3.2%) were called active. The inconclusive results got no clear call from the source; some entries with a clear call stand among them for comparison. Calls follow the shape of the dose curve; as a rule, active = well fitted cell-killing curve with a large enough effect; inconclusive = small, poorly fitted or top-dose-only effect, or effect the other way; inactive = flat fitted curve, though single readings scatter. Where the call is inconclusive, the potency comes from a doubtful curve fit. % is scaled to controls: 0 for no effect and ±100 for the full control effect; potency is read from the fitted curve at half-maximal effect.",
  "data": [
    {"test": "qHTS assay for MDR1-selective chemotherapeutics: Primary screen using the drug-selected MDR subline cells KB-V1; also: nearly all actives have a fitted effect of over 60% in size", "details": "KB-V1 MDR cells viability, CellTiter-Glo, 72 h; activity change, negative = cytotoxicity: at 46.1 µM (top of the series)", "in_short": "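KB-V1, DMEM (no phenol red) + 10% FBS; cpd pin-transferred, titration series; 72 h, 37 degrees C; CellTiter-Glo, luminescence. Data normalized, curve-fit.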", "values": [
      {"smiles": "CCN(C(=O)CSc1nnc(SC)s1)c1c(N)n(Cc2ccccc2)c(=O)[nH]c1=O", "Potency": "inconclusive: 29.1 µM [rising, single point]"},
      {"smiles": "NC(=O)C1(N2CCCCC2)CCN(C(=O)NC23CC4CC(CC(C4)C2)C3)CC1", "Potency": "inconclusive: 10.3 µM [cytotoxic, partial curve]"},
      {"smiles": "CC(=O)N1CCN(C(=O)c2cc(C)oc2C)CC1", "Potency": "inconclusive: 18.4 µM [rising, single point]"},
      {"smiles": "O=C(COc1ccc(S(=O)(=O)N2CCOCC2)cc1)Nc1ccc(Br)cc1", "activity change, negative = cytotoxicity": "inactive: -11.5%"},
      {"smiles": "COC(=O)c1sccc1NC(=O)c1ccc2c(c1)OCO2", "Potency": "inconclusive: 13 µM [cytotoxic, partial curve, poor fit]"},
      {"smiles": "CCCCn1c(O)c(N=NC(=O)c2ccncc2)c2cc(Br)ccc21", "Potency": "inconclusive: 16.4 µM [cytotoxic, single point]"},
      {"smiles": "O=C(COC(=O)C1=COCCO1)Nc1ccc(F)c(F)c1", "Potency": "inconclusive: 29.1 µM [rising, single point]"},
      {"smiles": "COc1cccc(C2CCCCN(C)C2=O)c1", "note": "(stereo not drawn)", "Potency": "inconclusive: 11.6 µM [rising, partial curve]"},
      {"smiles": "CCOc1ccc2nc(NCCO)[nH]c2c1", "activity change, negative = cytotoxicity": "inactive: -1.58%"},
      {"smiles": "CCCOc1ccc(-c2nnn(CC(=O)N3CCC(C)CC3)n2)cc1", "Potency": "inconclusive: 23.1 µM [cytotoxic, single point]"},
      {"smiles": "COc1cc(OC)cc(C(=O)NC(=S)Nc2ccc(NC(=O)c3ccco3)cc2)c1", "activity change, negative = cytotoxicity": "inactive: 8.55%"},
      {"smiles": "CC(C)(C)C1(O)CC(C(F)(F)F)=NN1C(=O)Cc1ccc([N+](=O)[O-])cc1", "note": "(stereo not drawn)", "Potency": "inconclusive: 29.1 µM [cytotoxic, single point]"},
      {"smiles": "Cc1cc(OCC(=O)NCCN2CCOCC2)c2c(C)c(C)c(=O)oc2c1", "activity change, negative = cytotoxicity": "inactive: -19%"},
      {"smiles": "Cn1c(=O)c2c(ncn2CCOC(=O)C(C)(C)Oc2ccc(Cl)cc2)n(C)c1=O", "Potency": "inconclusive: 23.1 µM [cytotoxic, partial curve, poor fit]"},
      {"smiles": "CC(C)C[C@H](NC(=O)N1CC(=O)Nc2ccccc21)C(=O)N1CCC[C@H]1C(=O)O", "Potency": "inconclusive: 23.1 µM [cytotoxic, single point]"},
      {"smiles": "COc1cccc(/C=N\\NC(=O)c2ccc(Cn3cc(Br)c([N+](=O)[O-])n3)o2)c1O", "Potency": "inconclusive: 7.31 µM [cytotoxic, partial curve]"},
      {"smiles": "Cc1ccc(NC(=O)CN(C)C(=O)CSc2nnnn2C)cc1", "Potency": "inconclusive: 8.2 µM [rising, partial curve, poor fit]"},
      {"smiles": "CSCCC(c1nc2ccccc2[nH]1)n1c(/C=C/c2ccc(F)c(F)c2)nc2ccccc21", "note": "(stereo not drawn)", "Potency": "inconclusive: 10.3 µM [cytotoxic, partial curve, poor fit]"},
      {"smiles": "O=S(=O)([N-]c1nc2ccccc2nc1-[n+]1ccc(CCCc2ccccc2)cc1)c1cccs1", "Potency": "inconclusive: 4.61 µM [rising, partial curve, poor fit]"},
      {"smiles": "Cc1ccc(Cn2nnc3c(=O)n(CC(=O)OCc4ccccc4)cnc32)cc1", "activity change, negative = cytotoxicity": "inactive: -2.93%"},
      {"smiles": "COc1ccc([C@H]2C(C(=O)O)=C[C@@H](CC3CCCC3)N2S(=O)(=O)c2ccc(C)cc2)cc1OC", "activity change, negative = cytotoxicity": "inactive: -0.169%"},
      {"smiles": "CCCCC(=O)Nc1ccc(C(=O)Nc2cc(C(F)(F)F)ccc2Cl)cc1", "Potency": "inconclusive: 29.1 µM [cytotoxic, single point]"},
      {"smiles": "Cc1nc(N2CCN(c3ccccn3)CC2)c2c(C)c(C(=O)Nc3ccc(F)c(Cl)c3)sc2n1", "Potency": "inconclusive: 29.1 µM [cytotoxic, single point]"},
      {"smiles": "CC(C)N(C(=O)N1CCC(c2nc(-c3ccncc3)no2)CC1)C(C)C", "Potency": "active: 10.3 µM"},
      {"smiles": "CCN(CC(=O)Nc1ccccc1C(F)(F)F)C(=O)Cc1sc(C)nc1-c1ccc(F)cc1", "Potency": "inconclusive: 20.6 µM [cytotoxic, single point]"},
      {"smiles": "O=C(Nc1ccc(Br)cc1)C1CCN(c2cnccn2)CC1", "Potency": "inconclusive: 18.4 µM [cytotoxic, partial curve, poor fit]"},
      {"smiles": "O=C(Nc1cccc(-c2csc(-c3ccccc3)n2)c1)c1cccs1", "Potency": "active: 14.6 µM"},
      {"smiles": "COc1ccc(CNC(=O)CCCCCNC(=O)N2CCn3c2nc2ccccc23)cc1", "activity change, negative = cytotoxicity": "inactive: 21.2%"},
      {"smiles": "Cc1cc(C)nc(N/C(=N\\S(=O)(=O)Cc2ccccc2)Nc2ccccc2Br)n1", "Potency": "inconclusive: 10.3 µM [cytotoxic, partial curve]"},
      {"smiles": "COc1ccc(CNC(=O)OC2CC3CC2[C@H]2CCCCN2C3=O)cc1", "note": "(stereo partly drawn)", "activity change, negative = cytotoxicity": "inactive: -11.6%"},
      {"smiles": "CC12CC3(C)CC(C)(C1)CC(NC(=O)N1CCCC1)(C2)C3", "Potency": "inconclusive: 31.6 µM [cytotoxic, single point]"},
      {"smiles": "COC(=O)c1c(-c2cccc(C)c2)csc1NC(=O)C1CCCO1", "note": "(stereo not drawn)", "Potency": "inconclusive: 23.1 µM [cytotoxic, single point]"},
      {"smiles": "Cc1cc2nc(C3CCCCC3)c(Cc3cccc(F)c3)n2c(C)c1Br", "Potency": "inconclusive: 29.1 µM [cytotoxic, single point]"},
      {"smiles": "CCN(C(=O)CSc1nc2nc(C)cc(C)n2n1)c1ccccc1", "Potency": "inconclusive: 20.6 µM [cytotoxic, partial curve, poor fit]"},
      {"smiles": "Cc1cccc(-n2c(SCC(=O)N3CC(=O)Nc4ccccc43)nc3ccccc3c2=O)c1C", "activity change, negative = cytotoxicity": "inactive: -10.4%"},
      {"smiles": "CC(C)/C=C/C(=O)N1CCC(N2CCC(C(=O)NCC3CCCO3)CC2)CC1", "note": "(stereo not drawn)", "activity change, negative = cytotoxicity": "inactive: 0%"},
      {"smiles": "CCOC(=O)c1cc2oc(C(c3nnnn3C3CCCCC3)N3CCOCC3)cc2[nH]1", "note": "(stereo not drawn)", "Potency": "inconclusive: 20.6 µM [cytotoxic, single point]"},
      {"smiles": "COc1ccccc1CNC(=O)c1ccc(N2CCCC2)c(NC(=O)NCc2ccccc2)c1", "activity change, negative = cytotoxicity": "inactive: -5.93%"},
      {"smiles": "COc1ccc(NC(=S)c2ccc(N(C)C)cc2)cc1", "activity change, negative = cytotoxicity": "inactive: -4.29%"},
      {"smiles": "COCCNC(=O)COC(=O)c1cccnc1SC", "Potency": "inconclusive: 16.4 µM [rising, partial curve, poor fit]"},
      {"smiles": "COC1OC(COC(=O)c2ccccc2)C(OC(=O)c2ccccc2)C1OC(=O)c1ccccc1", "note": "(stereo not drawn)", "Potency": "inconclusive: 3.66 µM [cytotoxic, partial curve, poor fit]"},
      {"smiles": "CCC(C(=O)N1CCN(c2ccccc2)CC1)n1nc(C)n2c(cc3sccc32)c1=O", "note": "(stereo not drawn)", "Potency": "inconclusive: 20.6 µM [cytotoxic, single point]"},
      {"smiles": "CCC(C(=O)n1cccc1C#N)c1ccccc1C", "note": "(stereo not drawn)", "Potency": "inconclusive: 29.1 µM [rising, single point]"},
      {"smiles": "Cc1cc(-c2ccc(S(=O)(=O)N(C)c3ccc(C)c(C)c3)s2)on1", "Potency": "active: 7.31 µM"},
      {"smiles": "C[C@H](CO)N1C[C@H](C)[C@@H](CN(C)C(=O)Nc2ccccc2)Oc2c(NC(=O)Nc3ccc(C(F)(F)F)cc3)cccc2C1=O", "Potency": "inconclusive: 32.6 µM [cytotoxic, single point]"},
      {"smiles": "CC(=O)NC1=NN(C(C)=O)C(C)(c2ccco2)S1", "note": "(stereo not drawn)", "Potency": "inconclusive: 16.4 µM [cytotoxic, single point]"},
      {"smiles": "CCN1C(=O)CC(C(C)C)N(C2CCCC2)c2nc(Nc3ccc(C(=O)NC4CCN(C)CC4)cc3OC)ncc21", "note": "(stereo not drawn)", "Potency": "inconclusive: 18.4 µM [cytotoxic, single point]"},
      {"smiles": "CCOc1ccc(NC(=O)CN(C)C(=O)C2(c3ccccc3)CC2)cc1OCC", "Potency": "inconclusive: 0.0411 µM [rising, full curve]"},
      {"smiles": "CC(C)CC1Nc2ncnc(N3CCOCC3)c2N(Cc2ccc(Br)cc2)C1=O", "note": "(stereo not drawn)", "activity change, negative = cytotoxicity": "inactive: -0.831%"},
      {"smiles": "O=C(c1ccc2c(c1)OCO2)C1CCCN(Cc2cn[nH]c2-c2cccc(F)c2)C1", "note": "(stereo not drawn)", "Potency": "inconclusive: 5.8 µM [cytotoxic, partial curve]"},
      {"smiles": "Cc1cccc(NC(=O)C2CCN(S(=O)(=O)c3cccs3)CC2)c1", "Potency": "inconclusive: 20.6 µM [cytotoxic, single point]"},
      {"smiles": "COc1cccc(C(N)=O)c1", "activity change, negative = cytotoxicity": "inactive: 0%"},
      {"smiles": "CCOC(=O)c1c[nH]c2c(Cl)c(Cl)ccc2c1=O", "activity change, negative = cytotoxicity": "inactive: 11.4%"},
      {"smiles": "Cc1cccc(C)c1NC(=O)CSc1nnc([C@H](C)NC(=O)OC(C)(C)C)o1", "Potency": "inconclusive: 23.1 µM [cytotoxic, partial curve, poor fit]"},
      {"smiles": "CCC(=O)N(CCC1(c2ccccc2OC)CCOC(C(C)C)C1)Cc1ccco1", "note": "(stereo not drawn)", "Potency": "inconclusive: 8.2 µM [cytotoxic, partial curve, poor fit]"},
      {"smiles": "COCCCn1c(SCc2cccc(C(F)(F)F)c2)nc2cc(OC)c(OC)cc2c1=N", "activity change, negative = cytotoxicity": "inactive: 7.17%"},
      {"smiles": "O=C(OCc1cn([C@H]2C[C@H](c3ccc(Cl)cc3)N(C(=O)c3cccs3)C[C@@H]2O)nn1)c1ccccc1", "activity change, negative = cytotoxicity": "inactive: 0.0516%"},
      {"smiles": "CCOc1cc(N2CCOCC2)c(OCC)cc1NC(=O)c1ccc(C)cc1", "Potency": "inconclusive: 18.4 µM [cytotoxic, partial curve, poor fit]"},
      {"smiles": "COc1ccc(Cl)cc1S(=O)(=O)N(C)CC(=O)N1CCCC1", "activity change, negative = cytotoxicity": "inactive: 11%"},
      {"smiles": "COc1cccc(Oc2ccc(C(F)(F)F)cc2NC(=O)c2cccc(F)c2)c1", "Potency": "active: 20.6 µM"},
      {"smiles": "Brc1ccc(Nc2ncnc3[nH]ncc23)cc1", "Potency": "inconclusive: 29.1 µM [cytotoxic, single point]"},
      {"smiles": "COc1ccc(OC)c(NC(=O)CSc2ccnc(=O)[nH]2)c1", "activity change, negative = cytotoxicity": "inactive: 1.89%"},
      {"smiles": "CCOC(=O)/C(C#N)=C/Nc1ccccc1OC(F)(F)F", "activity change, negative = cytotoxicity": "inactive: -2.02%"},
      {"smiles": "CCOC(=O)C1(C/C(C)=N/NC(N)=O)CC(C)(C)OC1=O", "note": "(stereo not drawn)", "Potency": "inconclusive: 23.1 µM [rising, single point]"},
      {"smiles": "COc1ccc(CCNC(=O)c2ccc3ccccc3n2)cc1", "Potency": "inconclusive: 2.91 µM [cytotoxic, single point]"},
      {"smiles": "Cc1ccc(-c2c(C(=O)O)c3ccccc3[nH]c2=O)cc1", "Potency": "inconclusive: 29.1 µM [rising, single point]"},
      {"smiles": "COC(=O)c1cc(N=Nc2sc(N)nc2C)cc(C(=O)OC)c1", "Potency": "inconclusive: 6.51 µM [cytotoxic, full curve]"},
      {"smiles": "Cc1ccc(Nc2nc(-c3c(C)nc4ncccn34)cs2)cc1", "Potency": "active: 0.326 µM"}
    ]}
  ]
}
